The list shows a part of the results.

The experiment concerns the target T1, OsSMF1 (Oryza sativa, UniProt Q6ZLB0 1-436).
T1 sequence: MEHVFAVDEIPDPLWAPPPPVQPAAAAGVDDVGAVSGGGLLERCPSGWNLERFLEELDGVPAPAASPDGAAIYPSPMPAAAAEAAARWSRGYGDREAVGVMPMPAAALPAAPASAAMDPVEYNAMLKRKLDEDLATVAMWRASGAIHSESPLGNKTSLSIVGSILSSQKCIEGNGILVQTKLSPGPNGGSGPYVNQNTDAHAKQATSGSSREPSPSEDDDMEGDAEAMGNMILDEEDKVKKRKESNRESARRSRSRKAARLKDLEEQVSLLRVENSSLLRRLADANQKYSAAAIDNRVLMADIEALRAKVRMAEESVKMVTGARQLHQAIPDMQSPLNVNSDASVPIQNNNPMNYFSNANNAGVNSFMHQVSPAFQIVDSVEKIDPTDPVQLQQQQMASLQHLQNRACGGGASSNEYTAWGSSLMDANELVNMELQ
The experiment can be described thus: protein-binding microarray (RPBM); PBS, 2% BSA, 51.3 ng/ul salmon testes DNA, 50 uM zinc acetate, 200 nM TF, 25 C, 1 h; high values mean tight binding. Conditions: protein: recombinant; tags: N-terminal polyhistidine and DsRed monomer fusion (pET32a); chain copies: 2; label: CyDye5-dUTP incorporated in the synthesized complementary strand; 3' TTTTT single-stranded linker to array surface; dsDNA, one strand shown. The procedure, abridged:
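Transcription factors were each fused at the N-terminus to a polyhistidine tag plus DsRed and expressed in E. coli BL21-CodonPlus before Ni–NTA purification. Binding to a double-stranded custom Agilent array was carried out with 200 nM protein at 25 °C for 1 h in PBS, 2% BSA, salmon testes DNA and 50 µM zinc acetate. The binding signal is per-feature fluorescence intensity, in arbitrary units, on an Axon 4000B scanner.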
“TTGGTAAGGATGAGCTGGAAGAGTCATCAAAGCATGGCACCGGAGTCACCTAGTGCAG”: the binding signal is 3290 fluorescence intensity (a.u.).

For “GTCTACGGAGTACGGACATGACACGAGACAATATTACCCCCGGAGTCACCTAGTGCAG”, the binding signal was 3350 fluorescence intensity (a.u.).

As to “CGCGATAGCGATGTGACTCATTTACCGCTGATCTGATCTGCGGAGTCACCTAGTGCAG”, the binding signal is 7490 fluorescence intensity (a.u.).

Turning to “ACGGTTTTATCTTGTCACTCGGGTGTTGCTAGGGCACGATCGGAGTCACCTAGTGCAG”, the binding signal is 3430 fluorescence intensity (a.u.).

In the case of “CTCGCCGGCGTCTTCACCAGGCGCTCCGCCTCCACGTCGGCGGAGTCACCTAGTGCAG”, the binding signal is 8520 fluorescence intensity (a.u.).

As for “GCATGCTTACGCATGTTGTATCACTGTATCAGTGTATCACCGGAGTCACCTAGTGCAG”, the binding signal was 3520 fluorescence intensity (a.u.).

“TGCCGGGGTTACCACGCCCCGGCGGTAAGCACGGTTACCGCGGAGTCACCTAGTGCAG”: the binding signal is 3180 fluorescence intensity (a.u.).

Consider “ATTAGCAGTTTGCTAATGACAGAGTAGTGACGTTGTTTTCCGGAGTCACCTAGTGCAG”, for which the binding signal was 3610 fluorescence intensity (a.u.).

Consider “GATTGGGGAGCGGAGGAAGAGGAGGGGAAGTGGAGAGAGTCGGAGTCACCTAGTGCAG”, for which the binding signal was 3540 fluorescence intensity (a.u.).

As for “TTTTGCCACCTGTTTCAGTGTTAGTGCTGTATGATGCTACCGGAGTCACCTAGTGCAG”, the binding signal was 4200 fluorescence intensity (a.u.).

As to “TTCTATAAAATTGGTCAAACTTTAATACGAAACGGATGGACGGAGTCACCTAGTGCAG”, the binding signal was 3660 fluorescence intensity (a.u.).

Take “ACCCCTCCCGCCGCCGTGGGTTTCCGCCTCGTTCTCGAGCCGGAGTCACCTAGTGCAG”: the binding signal was 3360 fluorescence intensity (a.u.).

For the sequence “CTGCGCGCACCGCGCGGTTGCCACGCACCGCCCGACGCACCGGAGTCACCTAGTGCAG”, the binding signal is 4990 fluorescence intensity (a.u.).

As for “TTGTATTTGTTAATGGAATGCTGATTGGTGCACAGCAAACCGGAGTCACCTAGTGCAG”, the binding signal is 3170 fluorescence intensity (a.u.).

Regarding “ATTGAATATAATTGGATATAAACAGTTTAAAACTATACTCCGGAGTCACCTAGTGCAG”, the binding signal is 5510 fluorescence intensity (a.u.).

Regarding “CCCACTATTAGCTCCAATTCATCTCTGGCCAATCTAATAGCGGAGTCACCTAGTGCAG”, the binding signal was 3370 fluorescence intensity (a.u.).

Consider “GTCGGGCTCGGGACTCCTGCCGTGCCGCTGTCTGACAAGTCGGAGTCACCTAGTGCAG”, for which the binding signal is 3200 fluorescence intensity (a.u.).

Consider “GCGTCGAATGGAAAGATTTGAATATACACGCTGGCAACGTCGGAGTCACCTAGTGCAG”, for which the binding signal was 4160 fluorescence intensity (a.u.).

Turning to “TCCCGTCTCGTCCGTCGTCTCCTCCGCTCCTTGCGCCAAGCGGAGTCACCTAGTGCAG”, the binding signal is 3200 fluorescence intensity (a.u.).

With “AATAGCTGTAGAACCTTTTGAGCTTTTCTTTTATTTATCTCGGAGTCACCTAGTGCAG”, the binding signal was 12800 fluorescence intensity (a.u.).

For the sequence “ATTTTAGGCTAAACAACTGAATGACTGACGATTCGATCCACGGAGTCACCTAGTGCAG”, the binding signal is 3340 fluorescence intensity (a.u.).

Take “GCAGGCTGCTATAAGTAGCGCTGCTGCTGACGAGCTGATCCGGAGTCACCTAGTGCAG”: the binding signal was 3470 fluorescence intensity (a.u.).

As to “AAAATCTCCATCCCAGCCACCTCACAACAAGATCCTCAACCGGAGTCACCTAGTGCAG”, the binding signal is 3410 fluorescence intensity (a.u.).

In the case of “CGAGACCACAAAACCTGTGGTTACATGTCACACGTCATAACGGAGTCACCTAGTGCAG”, the binding signal was 10900 fluorescence intensity (a.u.).

As for “TCTCTCTCTCTCTCTCTCTCTCTCTTTGAAATTCATGATTCGGAGTCACCTAGTGCAG”, the binding signal is 18100 fluorescence intensity (a.u.).

With “CAAATCGTCGGCCGAATCTCCCGCTGGCGCCGACGTGGACCGGAGTCACCTAGTGCAG”, the binding signal is 12600 fluorescence intensity (a.u.).

Consider “ATTTATTTTCCCCTAACCTGCGCGGAGAAAATTGTCGTGTCGGAGTCACCTAGTGCAG”, for which the binding signal was 3160 fluorescence intensity (a.u.).

Regarding “AGCGCCGCTCCCCGCCACAAGTCCGCGCCTCCTCGACGACCGGAGTCACCTAGTGCAG”, the binding signal was 3500 fluorescence intensity (a.u.).

Regarding “GCCGAACTATGTATGGTTGGGCCGGGGATGGGCCGACGCCCGGAGTCACCTAGTGCAG”, the binding signal was 3990 fluorescence intensity (a.u.).

Regarding “GCGAATTCCGGCGAGGTATTCGCCGCGTTGCCATGGGGAACGGAGTCACCTAGTGCAG”, the binding signal is 3190 fluorescence intensity (a.u.).

For the sequence “GGCCGCGACGTACAGCTGTGACGCGGGATACGCCAAGAAGCGGAGTCACCTAGTGCAG”, the binding signal is 3320 fluorescence intensity (a.u.).

For “AATTCTACTGCCACATAAGCGCCACGTCAAAACGCCACGTCGGAGTCACCTAGTGCAG”, the binding signal is 18100 fluorescence intensity (a.u.).

Turning to “CCACCACAAGCGAGGCCCAACTCAGAGTGACACGAGTTCGCGGAGTCACCTAGTGCAG”, the binding signal was 3290 fluorescence intensity (a.u.).

As for “ACTCTCTCCCCGTCGTCGTCATCGTCATCGTCGTTCGTCGCGGAGTCACCTAGTGCAG”, the binding signal was 6810 fluorescence intensity (a.u.).

For the sequence “ACTCAGTTTCGTGCATGGATCTTACGAAGGTCAGGGGAGGCGGAGTCACCTAGTGCAG”, the binding signal is 3730 fluorescence intensity (a.u.).

For “CGGCTCGACCCGATGCTGTGGATTTCCGTTGCTACTATACCGGAGTCACCTAGTGCAG”, the binding signal was 3460 fluorescence intensity (a.u.).

For the sequence “ATGAACTATCAGGTCGATCGAATTATCCTCTAAACTCGAACGGAGTCACCTAGTGCAG”, the binding signal was 14100 fluorescence intensity (a.u.).

Regarding “ATATAAATAGGTTTCGAGGTAGAATATCAAAACAAGGATGCGGAGTCACCTAGTGCAG”, the binding signal was 39300 fluorescence intensity (a.u.).

As to “CTAATTCTAAAACTCAACATGCAAACATGCCACCTCATCACGGAGTCACCTAGTGCAG”, the binding signal was 8980 fluorescence intensity (a.u.).

Turning to “AACGCAACGACAATGCGCTATATTCTGCGCTGACAGGTGGCGGAGTCACCTAGTGCAG”, the binding signal was 4260 fluorescence intensity (a.u.).

For “GCGAATCCACACGACAACGTGGAGCATTGTGAACGGCCTTCGGAGTCACCTAGTGCAG”, the binding signal is 4760 fluorescence intensity (a.u.).

In the case of “TTTGCTTGCGAGTTGCGACAGTGACGGAGAGAGAGAGAGACGGAGTCACCTAGTGCAG”, the binding signal is 3460 fluorescence intensity (a.u.).

(Values after article PMC7819943, “Rice protein-binding microarrays: a tool to detect cis-acting elements near promoter regions in rice”.)
